Earlier results, collected in US8580789B2, “Treating glaucoma” (The Cleveland Clinic Foundation, priority 2007, dated 2013).
Some results were stated once for a whole list of compounds, not compound by compound.

System: human PS
Details: peripapillary scleral crosslinking, agent 0.5 M; cited from earlier work

Compound	Increase in stiffness of human scleral strips
O=CC(O)CO (centres unmarked) [glyceraldehydes, glyceraldehyde]	2-3 times
CC(=O)C=O [methylglyoxal]	2-3 times
